Measured values: PMC6168688

Experiments:
[1] = biological target: T1, OBE1, bait of the yeast two-hybrid screen and matrix with MOM1 (A. thaliana) (UniProt Q9S736); experiment: two-hybrid; library screen using OBE1 as bait
T1 sequence: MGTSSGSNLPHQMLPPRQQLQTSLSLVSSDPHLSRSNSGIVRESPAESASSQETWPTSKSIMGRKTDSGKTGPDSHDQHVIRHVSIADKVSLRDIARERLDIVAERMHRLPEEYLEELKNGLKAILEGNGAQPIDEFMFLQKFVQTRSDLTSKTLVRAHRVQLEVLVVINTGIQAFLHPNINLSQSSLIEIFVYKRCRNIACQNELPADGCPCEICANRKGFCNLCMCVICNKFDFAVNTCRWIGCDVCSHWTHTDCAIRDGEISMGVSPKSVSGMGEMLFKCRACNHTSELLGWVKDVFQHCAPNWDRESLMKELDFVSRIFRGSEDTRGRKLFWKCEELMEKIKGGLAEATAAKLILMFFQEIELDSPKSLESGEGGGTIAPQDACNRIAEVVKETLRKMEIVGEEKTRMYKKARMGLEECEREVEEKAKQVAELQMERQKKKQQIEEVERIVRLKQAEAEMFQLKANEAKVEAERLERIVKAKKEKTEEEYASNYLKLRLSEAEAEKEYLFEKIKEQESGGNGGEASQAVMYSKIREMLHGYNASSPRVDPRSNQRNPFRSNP

[2] = biological target: T1, OBE1, bait of the yeast two-hybrid screen and matrix with MOM1 (A. thaliana); experiment: two-hybrid; interaction matrix on SD-AHTL selective media (10-3 dilution), confirmation of the OBE1 screen

- binding [1]: binds
- binding [2]: binds
Substance: MOM1, cDNA isolated in the OBE1 yeast two-hybrid screen (A. thaliana)

Results are given in words; binding and its absence hold for the method and conditions named. Binding calls can cover weak binding; strength is not graded here.
